The source of these data is PubChem BioAssay AID1273 (Columbia University Molecular Screening Center, 2008).

The structures appear in SMILES notation. Values joined by “and” are separate entries in the source; they are usually repeats but may differ in a detail not shown here. Identical values can stand only once. The list shows a part of the results. The main result of the screen is listed elsewhere. These columns were measured beside it and carry no call. The list favours compounds with an active or inconclusive main result.

A short description of the experiment: inhibitors of insulin promoter-driven GFP, primary screen, imaging, TRM-6 cells (human fetal islet line), eGFP reporter, cell count (AID 1273;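 note: cells exposed to compound for 48 h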). The following applies: measured here: cell count, toxicity, at 2 µM, reporter expression induced with tamoxifen.
Consider `CCN1C(=O)/C(=C/c2nc3ccccc3c(=O)[nH]2)c2ccccc21`, for which the normalized cell count worked out at 148%.

The compound `c1ccc(Nc2nc3ccccc3o2)cc1` returned a normalized cell count of 82.6%. `c1cncc(-c2nc(-c3cccs3)cs2)c1` had a normalized cell count of 132%. On to `COc1ccc(CN(C)CC(=O)Nc2cc(OC)c([N+](=O)[O-])cc2C)c(OC)c1`, for which the normalized cell count stood at 62%. `Cc1cc(C)n(-c2nc3c(c(=O)n(Cc4ccc(Cl)c(Cl)c4)c(=O)n3C)n2C)n1`: the normalized cell count stood at 71.3%. For `CCOc1nc(NC2CCCCC2)nc(NC(C)(C)C)n1` the value was 101%; for `Cc1c(C(=O)NCc2cccnc2)oc2c1C(=O)CC(C)(C)C2`, 51%; for `COc1ccc(N2CCN(C(CNC(=O)c3cccc(Cl)c3)c3cccnc3)CC2)cc1` (stereo not drawn), 54.8%. Compound `S=C(c1nc2ccccc2[nH]1)N1CCOCC1` returned a normalized cell count of 120%. The compound `CC(=O)NC1=NC(=O)CS1` gave a normalized cell count of 137%. `O=C(c1ccccc1)c1ccccc1C(=O)N1CCOCC1` had a normalized cell count of 126%. Turning to `CCOc1c(C)cc(-c2ncccc2O)cc1C`, the normalized cell count is 162% and 160%.

`Cc1nc2cc(C(F)(F)F)ccc2n1C`: the normalized cell count worked out at 153%.

Consider `CCCn1c(CCc2ccccc2)nnc1SCC(=O)N1CCOCC1`, for which the normalized cell count came to 108%. `COC(=O)/C(C#N)=C1/C=Cc2ccccc2N1C`: the normalized cell count was determined as 194%. The compound `O=C1C2C3C=CC(C3)C2C(=O)N1c1ccc(N2CCN(c3ccccn3)CC2)c([N+](=O)[O-])c1` (stereo not drawn) registered a normalized cell count of 105%. For `CCC(C(=O)Nc1cc(C)on1)c1ccccc1` (stereo not drawn) the value was 49.5%. The compound `O=C(Oc1ccc(NC2=C(Cl)C(=O)c3ccccc3C2=O)cc1)c1ccc([N+](=O)[O-])cc1` gave a normalized cell count of 112%. Regarding `O=C(Nc1ccc(Nc2ccccc2)cc1)C1CC1`, the normalized cell count came to 120%. For `CC(=O)Nc1ccc(NC(=O)Cc2ccc(S(=O)(=O)N3CCCCC3)s2)cc1`, the normalized cell count was 150%.

In turn, `COc1ccccc1/C=C/C(=C1/C(=O)N(c2ccccc2)N=C1C)c1ccc(C)cc1` returned a normalized cell count of 188%. For `O=C(NC(=S)Nc1ccc(N2CCOCC2)cc1)c1cncc(Br)c1` the value was 92.5%. For `O=C(Cn1cnc2ccccc2c1=O)Nc1ccc(-c2nnc3n2CCCCC3)cc1` the value was 41.2%; for `Cc1ccc(-n2nc3c(N4CCN(c5ccccc5)CC4)nnc(C)c3c2C)cc1`, 94.8%. Consider `CC(=O)N(CC(C)(C)CC=C(C)C)c1ccccc1`, for which the normalized cell count is 125%. For `COc1ccc(N2CCN(c3ccc(N4C(=O)CC(C)C4=O)cc3[N+](=O)[O-])CC2)cc1` (stereo not drawn) the value was 102%.

In turn, `CC(C)Oc1ccc(NC(=O)c2ccncc2)cc1` gave a normalized cell count of 119%. For `Cc1nnc(-c2cnn(C)c2N)n1Cc1cccc(Cl)c1` the value was 53.9%. For the compound `CCCCC(=O)Nc1ccccc1C(=O)N1CCOCC1`, the normalized cell count is 72%. The value for `CSCCC(NS(=O)(=O)c1ccc(Br)cc1)C(=O)OCC(=O)NC1CC1` (stereo not drawn) was 30.6%; that for `O=C(NS(=O)(=O)c1ccccc1)c1ccccc1` was 95.8%; that for `CC(C)c1nc2cc3ccccc3cc2[nH]1` was 137%.

Regarding `COc1ccc(-n2c(SCCC(=O)O)nnc2-c2ccncc2)cc1`, the normalized cell count worked out at 121%.

As for `COc1ccc(S(=O)(=O)Nc2ccc3c(c2)OCO3)cc1C`, the normalized cell count was found to be 94%. For `COc1ccc(C(=O)Cn2c(NCCO)nc3ccccc32)cc1OC`, the normalized cell count was found to be 128%. For the compound `CCOc1cc(S(=O)(=O)n2nc(C)cc2C)ccc1F`, the normalized cell count is 81.4%. For `Clc1ccccc1N/N=C/c1ccc2c(c1)OCO2` the value was 89.2%. In the case of `CC(=O)Nc1ccc(NS(=O)(=O)c2ccc(Cl)c(C(=O)O)c2)cc1`, the normalized cell count came out at 21.6%.

Compound `Cc1ccc(S(=O)(=O)NCCC(c2ccccc2)c2ccccc2)cc1C(=O)O` registered a normalized cell count of 90.3%. For `CN(C)C(C)(C)C#CCCCCC#CC(C)(C)N(C)C` the value was 71.4%; for `Cc1ccc(-n2c(=O)c3ccccc3n(CC(=O)NCc3ccco3)c2=O)cc1`, 91.5%; for `CN(C)CCC(=O)c1ccc2c(c1)OCO2`, 89.4%. In turn, `Cc1cc(C)nc(N(C#N)S(=O)(=O)c2ccccc2)n1` showed a normalized cell count of 57.7%. Regarding `CCCC(=O)Nc1sc2c(c1C(=O)OCC)CC(C)(C)OC2`, the normalized cell count turned out to be 124%. Compound `CCOC(=O)c1c(N2C(=O)Nc3ccccc3N2O)n[nH]c1-c1cccc(Cl)c1` gave a normalized cell count of 126%.

In turn, `COc1cc(-c2nnc(SCC(=O)N3c4ccccc4Sc4ccccc43)o2)cc(OC)c1OC` had a normalized cell count of 30.6%.

On to `N#C/C(=C/c1cccs1)c1nc2ccccc2[nH]1`, for which the normalized cell count amounted to 218%. `CC(C)c1nc(-c2ccccc2)c(-c2ccccc2)[nH]1`: the normalized cell count was 141%. For the compound `CC1CCCC(N2CCN(C(=O)c3cccc(F)c3)CC2)C1` (stereo not drawn), the normalized cell count stood at 158%. For `Cc1cc2cc(CNS(=O)(=O)N(C)C)ccc2[nH]1` the value was 93.1%; for `Cc1ccc(S(=O)(=O)N2CCSC2C(=O)O)cc1` (stereo not drawn), 99.2%. With `CSc1nc2cc(F)c(F)cc2n1C`, the normalized cell count is 179%.

`CCOC(=O)c1cnc2c(C)cccc2c1NCc1ccco1` displayed a normalized cell count of 129%.

In turn, `CN(C)c1nc(NS(=O)(=O)c2ccc(Cl)cc2)nc(N(C)C)n1` returned a normalized cell count of 65.6%. For `Nc1nc(SCC(=O)Nc2ccc(Br)cc2F)n[nH]1` the value was 125%; for `CC1(C)COC(c2coc3ccccc3c2=O)OC1`, 0%. In turn, `CCn1c(C)nc2cc(OC)ccc21` gave a normalized cell count of 141%.

The compound `Cc1ccc2nc(NNC(=O)c3ccc(S(=O)(=O)N4CCc5ccccc5C4)cc3)sc2c1` returned a normalized cell count of 53.4%.
